Measurements taken from publication PMC10163288.
The other results are listed elsewhere or left out.

B1: il10ra_site1_sap_22_mot_8756ee2cf497b5429c717dfc0c0bcfd6_0001_000000186_0001_1_13_H_._HHH_b2_02097_0001_0000100003_0000002_0_0001_af2pred_0001 (protein)
chain: SSSSSVEHALKALKELAEKNNDEELKELIEEIEEYLEEHKDPHEAAELLIRIAVEAHRRRGSSSS
B2: il10ra_site1_normal_mot_2c1a291787c6f40772924d4e9068d803_0001_af2_000000222_0001_34_48_H_._9b26dc113238adff5f86db8059051cee_0001_0001_0000200002_0000002_0_af2pr … (protein)
chain: SPALEEVIALARAGELLEAAHLLARLLREAQAAKDAERQRALFEILVLLHRGELEKAEELARKLS
B3: il10ra_site1_sap_20_mot_b26a303360aa2756ef5b79665ce52f45_0001_000000179_0001_1_11_H_._HHH_b2_00074_0001_0000400020_0000002_0_0001_af2pred_dldesign_0_af2pred (protein)
chain: DEREALLRRIGTARRAALAAGDLEAAEALYNLAVELLRNPDPNDAAALAEAAARTDALAAAAAAS
B4: il10ra_site1_normal_mot_HHH_b2_06857_af2_000000179_0001_42_54_H_._HHH_b2_00081_af2_0001_0000100003_0000001_0 (protein)
chain: SSSSDEAVQEVYRLIREAAEALQSGNPEEAEEILEEARRLAEEANNELLRIQVEFLLRLIDSSSS
B5: il10ra_site1_normal_mot_HHH_b1_02997_000000220_0001_39_52_H_._HHH_b1_04704_0001_0000100005_0000003_0_af2pred_0001 (protein)
chain: SSSSSKEAERAQKLAREAIEARQHGDEELVEELLEEALRLAEEGNNELLQLIIKFILEDLNSSSS
B6: il10ra_site1_normal_mot_HHH_b1_07641_af2_000000285_0001_1_21_H_._HHH_b1_07021_af2_0001_0000200011_0000001_0_af2pred_0001 (protein)
chain: SSSSTEELREVIKLLREVAQLLEEGNPEEARKVLEEAKELAEEIGNETLRFIIEFLERLLSSSSS
B7: il10ra_site1_normal_mot_HHH_b2_04251_af2_000000037_0001_42_56_H_._HHH_b1_07770_0001_0000400020_0000001_0 (protein)
chain: SSSSSDEEVRELIEEAKELLERGDPEEALKVLQEASRFAIELNDPELTRLVIEVARLLDSSSSSS
B8: il10ra_site1_normal_mot_HHH_b2_03495_af2_000000088_0001_20_36_H_._HHH_b2_06881_af2_0001_0000100005_0000001_0 (protein)
chain: SSSSSEEEEEVRELLEEAKHIDDPREAAQVLLEATHLAWELGDEELLQLVHEVAEEVRKRASSSS
B9: il10ra_site1_normal_mot_HHH_b1_00999_000000080_0001_41_55_H_._HHH_b2_00276_0001_0000200011_0000001_0 (protein)
chain: SSSSSEEFEERIRELLEEAEQTEDPEERIRLILEALRLAYEVNNPELLQEVWEVAKRLGEGSSSS
B10: il10ra_site1_normal_mot_8756ee2cf497b5429c717dfc0c0bcfd6_0001_000000186_0001_1_13_H_._HHH_b2_00783_af2_0001_0000500025_0000001_0_af2pred_0001 (protein)
chain: SSSSTEEIRELLKLLREAAELLSDGNPEEAEEVLKEAEELAKELGDETVKVIIEFLKEQVRSSSS
B11: il10ra_site1_normal_mot_HHH_b1_00783_000000006_0001_19_35_H_._HHH_b2_01165_0001_0000200024_0000002_0 (protein)
chain: SSSSDEEEAREVLEHYEELLEEVAKKDAQKAFEALEEAIRLLLRLGDDEAAREISRFFVRLSSSS
B12: il10ra_site1_sap_15_mot_HHH_b2_05532_000000217_0001_1_18_H_._HHH_b2_05602_0001_0000100004_0000002_0_0001_af2pred_0001 (protein)
chain: SSSSDVEELLEEAEELAREGNPEEALEVLIEAFSEAWHLNDPELREEVAKLIREVARALRSSSSS
B13: il10ra_site1_sap_27_mot_HHH_b1_03613_af2_000000245_0001_1_20_H_._HHH_b1_04433_af2_0001_0000200022_0000001_0_0001_af2pred_0001 (protein)
chain: SSSSDEERIKLAIRFAKFLEEEGDPEAAKFILRAAIQIARKLGNEELVEELERLLKELEENSSSS
B14: il10ra_site1_normal_mot_HHH_b2_02354_af2_000000157_0001_40_56_H_._HHH_b1_07268_0001_0000100002_0000001_0 (protein)
chain: SSSSDEHEAARLIEEIMRLIKEGDHEEAKELIEELEELAKRLNDPNLEWIVKSLKLAIEQVSSSS
B15: il10ra_site1_normal_mot_HHH_b2_02337_000000026_0001_38_52_H_._HHH_b1_02815_0001_0000600033_0000001_0 (protein)
chain: SSSSDEEEEESEELERELEELLRRGDQERFNRLAQEISQFAFEVNDEELLRRVWELVRKFASSSS
B16: il10ra_site1_normal_mot_7d538683ae38ff56261eb02f12605454_0001_af2_000000062_0001_54_65_H_._HHH_b1_03098_0001_0000400031_0000002_0 (protein)
chain: SSSSSHAEAIVRIYREAVEFLYESGNPERAEHSARAALRALELLGNPELVEELERWLQELLSSSS
B17: il10ra_site1_normal_mot_HHH_b1_05185_000000011_0001_22_39_H_._HHH_b2_03997_0001_0000100011_0000001_0_af2pred_0001 (protein)
chain: SSSSSSEDEERLELIIELAKRVEDPEVARRLLEMAAELAEKNNNEELLEEIQRLLEELGSSSSSS
B18: il10ra_site1_normal_mot_HHH_b2_03220_af2_000000223_0001_23_40_H_._HHH_b1_01997_0001_0000100006_0000001_0 (protein)
chain: SSSSSTEENEEIWKLLREALQIPDKREAEELVEEAIEIAEEANNEVLLIQARFALRAIKLSSSSS
B19: il10ra_site1_sap_13_mot_HHH_b2_01447_af2_000000258_0001_1_20_H_._HHH_b2_04340_af2_0001_0000100006_0000001_0_0001 (protein)
chain: SELQEILRLVYRLGDPEILRALWKLVRRAAEGDPEAEELLKEILELLREGNREEVHELAKEILEK
B20: il10ra_site1_normal_mot_HHH_b2_08186_000000021_0001_43_56_H_._HHH_b1_04390_0001_0000100009_0000001_0 (protein)
chain: SSSSSSSLSELALRALRLAYKIPDPEESEKLLQEIWEALKKGDEEELRKIVERLEEELSSSSSSS
B21: il10ra_site1_normal_mot_HHH_b2_00943_af2_000000149_0001_1_17_H_._d3c612d18aab0e0945b39b51a1e20ad4_0001_1_af2_0001_0000500040_0000001_0 (protein)
chain: SDEENLQREVERNPNDLNALFLLLQVLAAREGDPELWELLRRATELIREGNPEEAREILQEAIER
B22: il10ra_site1_normal_mot_HHH_b2_08186_000000021_0001_43_56_H_._HHH_b1_04492_0001_0000100010_0000001_0 (protein)
chain: SSSDLEEEIEELLERIEELLKEGDREEALRLLQEAIRLIFRLGDQELLKELWELLREVAEKSSSS
B23: il10ra_site1_sap_16_mot_HHH_b1_06048_000000117_0001_42_56_H_._HHH_b1_02925_0001_0000400020_0000001_0_0001_af2pred_0001 (protein)
chain: SDEERFRVAVRNAAMLAGVEDVEVERENGEFEVTIHADSPAARRLELMVRWVALALNVEVEVEIR
B24: il10ra_site1_sap_10_mot_HHH_b2_05343_000000235_0001_19_35_H_._HHH_b1_05809_0001_0000100005_0000001_0_0001 (protein)
chain: SSSSDEYVRMTLRFAHWLAEEGDRDAVKHFLRVAKELAEKDGDEELKELIEEVEERVEELLSSSS
B25: il10ra_site1_normal_mot_HHH_b1_01879_000000050_0001_1_18_H_._HHH_b1_04021_0001_0000200009_0000001_0_af2pred_dldesign_0_af2pred (protein)
chain: SSSSSELDALLAALEAAVAAGDEAAVRELSVRVSRLALEANNKEVLKKVFDLMVDFYKKLSSSSS
B26: il10ra_site1_sap_26_mot_HHH_b1_01082_af2_000000031_0001_3_19_H_._HHH_b1_04956_0001_0000300027_0000001_0_0001 (protein)
chain: SSSSSDIEERLRLALRFIKWLEEAGDPEAARRILRAAEDIARRNNNPLLEEIEELLEELTSSSSS
B27: il10ra_site1_sap_27_mot_HHH_b2_05423_000000119_0001_22_38_H_._HHH_b1_07464_af2_0001_0000600034_0000001_0_0001_af2pred_dldesign_0_af2pred (protein)
chain: SSSSDPEVEAEVNRLLEEAKKEEDREKRSHLLLQAYSLANAAKDEALVAKVEEVAKEVIKSSSSS
B28: il10ra_site1_normal_mot_HHH_b2_03220_af2_000000223_0001_23_40_H_._HHH_b2_01200_af2_0001_0000600012_0000002_0_af2pred_0001 (protein)
chain: SSSSSDEREANQRVLELLRRAFEVSEEEAEELLKEAEQLAEEVNDPLLEKDVKTAKRLLSSSSSS
B29: il10ra_site1_sap_22_mot_HHH_b2_08186_000000021_0001_43_56_H_._HHH_b1_07644_af2_0001_0000300003_0000001_0_0001 (protein)
chain: SSSSSSDQELIELIMELARLLIRNDEERARELAKEAEELAEELGNERALKMLEDLLKVLSSSSSS
B30: il10ra_site1_normal_mot_HHH_b2_00273_000000062_0001_23_39_H_._HHH_b1_08542_0001_0000100001_0000001_0 (protein)
chain: SSSSSEEEERLEELLEEVEELIKEGDEEEALRLLLELIRLAFRASDEEVVRRIWELAKLIASSSS
B31: il10ra_site1_normal_mot_7d538683ae38ff56261eb02f12605454_0001_af2_000000062_0001_54_65_H_._HHH_b2_04392_af2_0001_0000500019_0000001_0_af2pred_0001 (protein)
chain: SSSSSEEARQALLAARLAIEWAYEQGDEHLAEAVFRSFAQALKELGDEEAVEQLEELFEKLSSSS
B32: il10ra_site1_normal_mot_HHH_b2_04677_000000098_0001_1_19_H_._HHH_b1_03771_0001_0000500041_0000001_0 (protein)
chain: SSSSTEERQELVELLREIFRLLLRGNPEEAKELIEEAQKLAKELGNESALRVLESLEQIVDSSSS
B33: il10ra_site1_normal_mot_HHH_b2_07521_000000141_0001_20_37_H_._HHH_b2_04525_af2_0001_0000500008_0000001_0 (protein)
chain: SSSSSDEELVKRSVRRLLKAAKEIEDEEYVRLALRFARALAEDNNNEEVLELVEEVARRLSSSSS
B34: il10ra_site1_normal_mot_HHH_b2_07521_000000141_0001_20_37_H_._HHH_b2_06530_0001_0000300044_0000001_0_af2pred_0001 (protein)
chain: SSSDRDEEQLRLTIRFAKWVLEQGDPEAAEFLVRAAVELARKLGDEELLKEAEELLEEIEKSSSS
B35: il10ra_site1_normal_mot_HHH_b2_07144_000000289_0001_1_18_H_._HHH_b2_05888_0001_0000200007_0000001_0 (protein)
chain: SSSSDSQELYKLSREAAELLRNGNPEEARKVLEEAEELAQELNNPVLLITIEHLLRDIEESSSSS
B36: il10ra_site1_sap_22_mot_HHH_b1_02420_000000033_0001_20_36_H_._HHH_b2_07350_0001_0000700038_0000002_0_0001_af2pred_0001 (protein)
chain: SIEELVRLIVELAGAPPEVERQLQLVVRAAKRLSPRSFEIMQRRLEEVIENNDEEAAEEIIKLFT
B37: il10ra_site1_normal_mot_HHH_b1_05056_000000217_0001_1_20_H_._HHH_b2_01071_af2_0001_0000100001_0000001_1 (protein)
chain: SSSSDEEREEVERLLEEAEEITDPREASEVLLRALRLAWESNDPELLRLVWEVVRRVEELLSSSS

The binders below were run against il10ra, Q13651 (assay: yeast display titration).

Apparent Kd, inactive:
B1 no binding seen, B2 > 3.86 µM, B3 no binding seen, B4 no binding seen, B5 no binding seen, B6 no binding seen, B7 no binding seen, B8 no binding seen, B9 no binding seen, B10 no binding seen, B11 no binding seen, B12 no binding seen, B13 no binding seen, B14 no binding seen, B15 no binding seen, B16 no binding seen, B17 no binding seen, B18 no binding seen, B19 no binding seen, B20 no binding seen, B21 no binding seen, B22 no binding seen, B23 no binding seen, B24 > 1.04 µM, B25 no binding seen, B26 no binding seen, B27 no binding seen, B28 no binding seen, B29 no binding seen, B30 no binding seen, B31 no binding seen, B32 no binding seen, B33 no binding seen, B34 no binding seen, B35 no binding seen, B36 no binding seen, B37 no binding seen
